Source: PubChem BioAssay (NCATS)
Some of the results follow. Shown are side measurements of this screen, not its main read-out; they come without a call. The list favours compounds with an active or inconclusive main result. Potencies come from curve fits of mixed quality, noted in brackets.

Assay: qHTS Assay for Inhibitors of PDE-IV (AID 607)
Conditions: HEK293 ACTOne CNG channel cells, membrane potential fluorescence; measured here: parental cell counter-screen
How it was run: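 Cell-based read-out of cAMP via a modified cyclic nucleotide-gated channel and membrane potential dye (535/590 nm) in HEK293 cells expressing PDE4 endogenously. Compounds tested up to 22.9 uM final; 100 uM RO 20-1724 reference.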

Row | SMILES | AC50
1 | C[C@@H](C(=O)Nc1ccc2ccccc2c1)[C@@H]1C[C@@]1(C)[C@@H](NC(=O)c1cccnc1)c1ccccc1 | 2.51 µM [rising, single point]
2 | COc1ccc2nc3c(cc2c1)Cc1ccccc1-3 | 10 µM [rising, single point]
3 | COC(=O)[C@@]1(Cc2ccccc2)[C@H]2c3cc(C(=O)N4CCCC4)n(C)c3C[C@H]2CN1C(=O)c1ccccc1 | 12.6 µM [rising, single point]
4 | N#Cc1ccc(CN2CCC3(CC2)CCN(C(=O)c2ccco2)CC3)cc1 | 0.398 µM [rising, single point]
5 | COc1ccccc1CNc1ncnc2ccc(-c3ccccc3CN(C)C)cc12 | 12.6 µM [rising, partial curve]
6 | COC(=O)C1(Cc2ccccc2)C2c3cc(C(=O)N4CCCC4)n(Cc4ccc(OC(F)(F)F)cc4)c3CC2CN1C(=O)c1ccccc1 (stereo not given) | 0.251 µM [rising, full curve]
7 | COc1ccccc1-c1nccc(NCc2cccc(C)c2)n1 | 6.31 µM [rising, partial curve]
8 | COC(=O)[C@@]1(Cc2ccc(OC)cc2)[C@H]2c3cc(C(=O)N4CCCC4)n(Cc4ccc(Cl)c(C(F)(F)F)c4)c3C[C@H]2CN1C(=O)c1ccccc1 | 12.6 µM [rising, single point]
9 | O=C(c1cccc(F)c1)N1CCC2(CCCN(c3ccccn3)C2)CC1 | 10 µM [rising, single point]
10 | CCCC[C@@H]1C[C@H]1C(NC(=O)c1ccco1)c1ccccc1C(F)(F)F (stereo not given in full) | 7.94 µM [rising, partial curve]

3 entries out of the list, ordered by SMILES length, largest number first:
Row | SMILES | AC50
9 | O=C(c1cccc(F)c1)N1CCC2(CCCN(c3ccccn3)C2)CC1 | 10 µM [rising, single point]
7 | COc1ccccc1-c1nccc(NCc2cccc(C)c2)n1 | 6.31 µM [rising, partial curve]
2 | COc1ccc2nc3c(cc2c1)Cc1ccccc1-3 | 10 µM [rising, single point]
